Results of single-concentration screens

Protein sequences, listed by entry. Tags and fused reporters are not part of them.
UniProt P9WPC5, whole entry: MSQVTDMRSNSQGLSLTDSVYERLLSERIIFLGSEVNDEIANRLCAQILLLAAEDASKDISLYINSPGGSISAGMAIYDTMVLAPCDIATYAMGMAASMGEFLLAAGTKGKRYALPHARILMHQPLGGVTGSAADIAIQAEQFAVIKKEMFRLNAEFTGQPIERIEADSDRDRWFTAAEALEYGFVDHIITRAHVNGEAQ
UniProt P9WPC3, whole entry partner: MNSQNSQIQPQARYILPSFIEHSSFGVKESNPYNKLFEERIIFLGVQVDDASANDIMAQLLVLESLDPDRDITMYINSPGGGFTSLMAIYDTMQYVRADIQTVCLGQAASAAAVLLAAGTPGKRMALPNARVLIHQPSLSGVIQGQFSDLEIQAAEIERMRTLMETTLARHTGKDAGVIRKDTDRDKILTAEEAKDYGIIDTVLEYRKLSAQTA

Measurements from “University of Dundee, Small-Polar-MMV Screening Library” (2021), ChEMBL document CHEMBL3988442.

Toxoplasma: 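Assay of Toxoplasma gondii numbers, read through their beta-galactosidase reporter with a colour substrate. Concentration: 10 µM. The record gives no direction; the compounds picked for IC50 retests had high values, so higher reads as fewer parasites. Size under these conditions: about 67,000 compounds, about 260 of them at 50% or above in at least one test.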
ClpP1P2: 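Protease assay of ClpP1P2, read by the AMC dye that it sets free. Target: ClpP1P2, Mycobacterium tuberculosis (UniProt P9WPC5 and UniProt P9WPC3). Compounds at 50 µM. Higher reads as stronger inhibition, judged from the few compounds that gave an IC50. Most other retested compounds had strongly negative values. About 69,000 compounds were tested under these conditions; 0.015% (about 10) showed 50% or more at least once.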

Values are the deposited “Percent Effect”, in %. The record does not define 0% and 100%; most values in the screen are far below 50% and negative numbers occur (in some assays of this library far below -100). The compounds are a random part of those screened. A dash means the value is not listed here; it may have been measured.

| structure | Toxoplasma | ClpP1P2 |
|---|---|---|
| `CCOCC1CCN(C(=O)C(c2ccccc2F)N(C)C)CC1` (stereo not shown) | 16.67% | 22.15% |
| `O=C(NCCOc1ccc2c(c1)OCO2)N1CCC1` | -4.227% | -0.672% |
| `O=C(NCc1ccc(-n2cncn2)nc1)c1cnccn1` | 13.07% | 2.003% |
| `Cc1cnc(CC2COCCN(C(=O)CN3CCCCC3)C2)cn1` (stereo not shown) | -0.07042% | -3.992% |
| `CC(=O)c1cc2ncc(C(=O)NC3CCCCC3)cc2[nH]1` | -15.41% | 16.25% |
| `CCN(C(c1cccnc1)c1ccc2c(c1)CCC2)S(C)(=O)=O` (stereo not shown) | 4.425% | -13.52% |
| `CN(C)C(=O)c1cnc2n1CCN(Cc1cccnc1)C2` | - | 5.675% |
| `O=C(NCc1nnc2n1CCCC2)N1CCc2sccc2C1` | -4.174% | -28.23% |
| `CC(CN1CCOC1=O)NC(=O)c1ccccc1Oc1ccccc1` (stereo not shown) | 28.71% | 0.4253% |
| `CC(=O)N1CCCCC1c1ncnn1-c1ccc2nc(C)sc2c1` (stereo not shown) | 6.065% | -10.24% |
| `Cc1cc(C)cc(CN2CCN(Cc3cccc(CCN)c3)CC2=O)c1` | 21.86% | -2.006% |
| `[H][C@]12CC[C@]([H])(CN(C(=O)C3CCC3)C1)N(C(=O)c1ccc(OCC)cc1)C2` | -26.28% | - |
| `CC(C)CCN1CCc2nc(N3CCOCC3)nc(NC(C)C)c2C1` | 11.64% | 0.0959% |
| `Cc1nc(CN2CCC2(CCCc2ccccn2)C(=O)N(C)C)co1` (stereo not shown) | 4.537% | -31.98% |
| `Cc1ccc(-c2nnc(CN3CCc4cnc(C)nc4C3)o2)cc1` | 4.847% | 4.394% |
| `CC(=O)NC1CCCN(C(=O)CCc2cccnc2)C1` (stereo not shown) | -7.752% | 0.8499% |
| `CO[C@@H]1CCN(C(=O)c2ccccn2)[C@H]1Cc1ccccc1.O=C(O)C(F)(F)F` | 10.03% | - |
| `CN1C(=O)C2(CCN(C(=O)c3ccccc3)CC2)c2cc(F)ccc21` | - | -2.933% |
| `CC(CCc1ncnn1Cc1cccc(Cl)c1)N1CCCC1` (stereo not shown) | -2.949% | 5.684% |
| `CCCC(=O)N1CCC(c2nc(O)c3c(n2)CCN(C2CCCC2)C3)C1` (stereo not shown) | 2.992% | 7.646% |
| `COCCn1ccc2c(C(=O)NCC3CCCO3)cccc21` (stereo not shown) | -16.28% | -18.05% |
| `[H][C@]12CNC[C@@]1(C(=O)NCCCOc1cccnc1)CN(C(C)=O)C2` | 14.55% | - |
| `COCCn1ccc(NC(=O)Nc2cccc(C#N)c2)n1` | 2.918% | -15.23% |
| `Cn1cc(C[C@H]2[C@H](O)CCN2C(=O)c2ccsc2)cn1` | 11.63% | -3.602% |
| `O=C(c1cscn1)N1CCC2(CCN(Cc3cccs3)CC2)C1` | - | -0.879% |
| `O=C(NCCNc1ncccn1)C1CCN(C(=O)N2CCCC2)CC1` | -9.631% | -8.363% |
| `O=c1n(Cc2ccccc2F)nc2ncccn12` | 9.244% | 13.96% |
| `CSc1ncccc1C(=O)NCc1ccc(N(C)C)cc1` | 13.09% | 8.39% |
| `O=C1N(CCO)CCCC12CCN(Cc1noc(C3CCCC3)n1)C2` (stereo not shown) | 1.931% | 7.575% |
| `CNC(=O)CN1CCCC12CCN(C(=O)c1ccsc1)CC2` | - | 11.33% |
| `CCC1CN(c2cnn(C)c(=O)c2Cl)CCO1` (stereo not shown) | 5.005% | 14.03% |
| `CCCN1CCC(NC(=O)c2ccc(F)cc2I)CC1` | -4.653% | -2.611% |
| `CCOCC(=O)NC(C)c1cc(C)ccc1C` (stereo not shown) | 3.522% | 16.15% |
| `Cc1c(C(=O)NC2(C#N)CCSC2)nnn1-c1ccccc1Cl` (stereo not shown) | 9.929% | 0.2159% |
| `CN1CCOCC2(CCCN(C(=O)c3cn(C)cn3)C2)C1.O=C(O)C(F)(F)F` (stereo not shown) | 12.51% | - |
| `CC(=O)N(Cc1ncc(C)o1)C1CCN(Cc2ccon2)C1` (stereo not shown) | -3.535% | -40.12% |
| `C[S+]([O-])c1cccc(NC(=O)N(CCC#N)Cc2ccccn2)c1` (stereo not shown) | 13.21% | -3.985% |
| `Cc1ccc2oc(=O)n(CC(=O)N3CCC4(CC3)CN(C)C(=O)O4)c2c1` | -14.23% | 1.049% |
| `O=C(Nc1ccccc1OC1CCOC1)c1[nH]nc2c1CCCC2` (stereo not shown) | 5.008% | -6.325% |
| `COCC1CCCN(c2cncc(OCc3ccccc3)n2)C1` (stereo not shown) | 26.83% | -6.335% |
| `CCc1nc(C2CCCN2CC(=O)Nc2sc(C)c(C)c2C)no1` (stereo not shown) | 1.165% | 0.913% |
| `CSCc1cccc(S(=O)(=O)Nc2cc(C)on2)c1` | 3.327% | -14.27% |
| `CC(C)n1ccc(CN2CCOC(CNc3cccnn3)C2)n1` (stereo not shown) | 6.586% | -19.59% |
| `CN(C)S(=O)(=O)N1CCC(C)(c2ncc(C(N)=O)s2)CC1` | 1.163% | -11.56% |
| `CCN(CCO)C(=O)Nc1ccc(OCCOC)nc1` | 8.827% | 2.515% |
| `O=C(c1ccccn1)N1CCN(c2ccc(-c3cccnc3)nn2)CC1` | 2.429% | 21.12% |
| `COc1ccccc1C1(CNc2ccnc(C(=O)N(C)C)c2)CC1` | -3.425% | 11.5% |
| `CN1CCCN(C[C@@H]2CN(C(=O)CCC3CCCC3)C[C@@H]2CO)CC1` | 4.975% | -8.687% |
| `CC(C)CC(C)N(C)C(=O)c1nc(S(C)(=O)=O)n2ccccc12` (stereo not shown) | 3.834% | -12.63% |
| `O=C(NCc1ccccn1)[C@H]1COC[C@H]2CN(Cc3ccoc3)C[C@H]21` | - | 2.503% |
| `NC(=O)c1cnn2c1NCC(CNCC1(c3ccccc3)CCCC1)C2` (stereo not shown) | -15.37% | 14.45% |
| `O=C(c1cc[nH]n1)N1CC[C@@H]2CN(Cc3ccccc3)S(=O)(=O)[C@@H]2CC1` | - | -5.61% |
| `Cc1ccc(=O)n(CC2(O)CCN(Cc3cccs3)CC2)n1` | 14.45% | -1.194% |
| `Nc1cc(N2CCCC(COc3ccc(F)cc3)C2)nc(N)n1` (stereo not shown) | -0.134% | -5.491% |
| `O=C1NCCN(Cc2cccnc2)C1CC(=O)N1CCc2n[nH]cc2C1` (stereo not shown) | 2.64% | -5.995% |
| `CCc1noc(C2CCCCN2C(=O)c2ccn(C3CCCC3)n2)n1` (stereo not shown) | 2.51% | 1.47% |
| `CC(C)Oc1cccc(C(=O)C2CCCN(C(=O)c3ccccn3)C2)c1` (stereo not shown) | 0.1154% | -11.98% |
| `O=C(c1cccc(F)c1)N1CC[C@@H]2CN(c3ncccn3)CCO[C@@H]2C1` | - | -0.7326% |
| `COc1c(Br)c(C(=O)NC2CCCC2)nn1C` | -21.85% | -12.88% |
| `Nc1nccc(C2CCN(CC3CC3)C2)n1` (stereo not shown) | 2.067% | 9.325% |

The first 4 entries again:

structure	Toxoplasma	ClpP1P2
CCOCC1CCN(C(=O)C(c2ccccc2F)N(C)C)CC1 (stereo not shown)	16.67%	22.15%
O=C(NCCOc1ccc2c(c1)OCO2)N1CCC1	-4.227%	-0.672%
O=C(NCc1ccc(-n2cncn2)nc1)c1cnccn1	13.07%	2.003%
Cc1cnc(CC2COCCN(C(=O)CN3CCCCC3)C2)cn1 (stereo not shown)	-0.07042%	-3.992%